Binding signal data for 42 sequences are collected here from PMC7819943, “Rice protein-binding microarrays: a tool to detect cis-acting elements near promoter regions in rice”.

Sequences of proteins named here, by UniProt entry; tags and fusion partners are left off.
UniProt Q0JBA9, entry or part of it: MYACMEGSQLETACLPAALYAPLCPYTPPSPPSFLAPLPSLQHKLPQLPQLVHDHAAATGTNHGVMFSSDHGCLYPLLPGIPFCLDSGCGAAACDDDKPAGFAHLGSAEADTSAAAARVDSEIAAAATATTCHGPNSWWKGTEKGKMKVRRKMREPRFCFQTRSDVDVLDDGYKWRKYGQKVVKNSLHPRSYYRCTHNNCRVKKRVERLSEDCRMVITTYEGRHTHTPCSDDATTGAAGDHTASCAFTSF

Some of the results follow.

For this experiment, the target named is OsWRKY34 (Oryza sativa, UniProt Q0JBA9 1-250). Nature of the experiment: protein-binding microarray (RPBM); PBS, 2% BSA, 51.3 ng/ul salmon testes DNA, 50 uM zinc acetate, 200 nM TF, 25 C, 1 h; high values mean tight binding. The settings on record: protein: recombinant; tags: N-terminal polyhistidine and DsRed monomer fusion (pET32a); label: CyDye5-dUTP incorporated in the synthesized complementary strand; 3' TTTTT single-stranded linker to array surface; dsDNA, one strand shown. The essentials:
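Transcription factors, each fused N-terminally to a polyhistidine tag and DsRed, were expressed in E. coli BL21-CodonPlus and purified on Ni–NTA. A custom Agilent array was made double-stranded by primer extension with Cy5-dUTP and blocked with 2% BSA. It was incubated with 200 nM protein in PBS, 2% BSA, salmon testes DNA and 50 µM zinc acetate at 25 °C for 1 h, then washed. The binding signal is per-feature fluorescence intensity (arbitrary units) read on an Axon 4000B scanner.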
In the case of “GGGGTATTCGTACTTTTTCCTTAATGTAGTAATGTGAAACCGGAGTCACCTAGTGCAG”, the binding signal was 8500 fluorescence intensity (a.u.).

With “AGTATAGATTGCCCGTGAGATTTTTACTGAGTTCCATTCCCGGAGTCACCTAGTGCAG”, the binding signal is 8290 fluorescence intensity (a.u.).

For the sequence “CTTGACGAGGAGGCCCGGGAGGGAGGGGTGCGGCGCGGTGCGGAGTCACCTAGTGCAG”, the binding signal was 8220 fluorescence intensity (a.u.).

On to “AATGGAATGGACAGTTGCTTGTTTTGGTAGTGCGAACTCACGGAGTCACCTAGTGCAG”, for which the binding signal was 8820 fluorescence intensity (a.u.).

On to “AGTATTGTTTTCTCGCTGTCTCTATCCAAATCTTTGAAAACGGAGTCACCTAGTGCAG”, for which the binding signal is 17200 fluorescence intensity (a.u.).

As for “TTCTTCTCGTTCAATTTCTCTTCCTCTACATTCTACGTCCCGGAGTCACCTAGTGCAG”, the binding signal is 8310 fluorescence intensity (a.u.).

As to “GCCTTGTCTCATTCTCCGTTCTCCTCTCCGCCCACCCACCCGGAGTCACCTAGTGCAG”, the binding signal was 8030 fluorescence intensity (a.u.).

With “TACATACTCCCCGTAGGCTCACACTCCCAATCTCTACTTGCGGAGTCACCTAGTGCAG”, the binding signal is 8650 fluorescence intensity (a.u.).

Turning to “CAGAAGTCCATGCTCCACCGGTAGCTCCATCACCATCTGTCGGAGTCACCTAGTGCAG”, the binding signal was 8650 fluorescence intensity (a.u.).

With “ACATCCATTTTTTTTAAATTTTCCTTTTATTTTTCACTGCCGGAGTCACCTAGTGCAG”, the binding signal was 9050 fluorescence intensity (a.u.).

With “GTACTACGTAGATCCCTATTCCGACGTAACCCAATACTCTCGGAGTCACCTAGTGCAG”, the binding signal was 8280 fluorescence intensity (a.u.).

Regarding “TGGGGTGGGTGCCCGGAGCTTTGATGCGCGTGGCCGCCGGCGGAGTCACCTAGTGCAG”, the binding signal is 12400 fluorescence intensity (a.u.).

For “AAATCCTTTCGAAATTTCACTTGTAATCTACTTTTGTCCCCGGAGTCACCTAGTGCAG”, the binding signal was 8770 fluorescence intensity (a.u.).

Turning to “AGGGAATGATACTACCTTTTCAGCCACTCACCATGACGTTCGGAGTCACCTAGTGCAG”, the binding signal was 9070 fluorescence intensity (a.u.).

Take “ACCCTAACCCTAGCCGCCTCTCTCTCGACCGCTCGTCTCTCGGAGTCACCTAGTGCAG”: the binding signal was 13400 fluorescence intensity (a.u.).

For the sequence “ACTCGCTTTGGTGGCGGAGAGTTTTTTTTTTTCCCTTTTCCGGAGTCACCTAGTGCAG”, the binding signal was 11500 fluorescence intensity (a.u.).

In the case of “CGCTAGAATTGTTCTATGTCTTTTTATTTTTCTCTAGTCCCGGAGTCACCTAGTGCAG”, the binding signal was 8130 fluorescence intensity (a.u.).

Turning to “TCGGCTCACCGCCTCACCGGCTCACATCGCATCATCGACACGGAGTCACCTAGTGCAG”, the binding signal was 9070 fluorescence intensity (a.u.).

For “CTACCTTTTCTTTTCATGTGCTTGACGGGCCGCGAATGTCCGGAGTCACCTAGTGCAG”, the binding signal is 9880 fluorescence intensity (a.u.).

Turning to “GCACGCTGTTAGTTGAAACATATTGCACCTTTTCTCTATTCGGAGTCACCTAGTGCAG”, the binding signal was 9160 fluorescence intensity (a.u.).

On to “ACCACGACGGCCTGTGTCCACCCGTCGCTTGCCAGTTCACCGGAGTCACCTAGTGCAG”, for which the binding signal is 9010 fluorescence intensity (a.u.).

In the case of “ATCCCGTCCCTGACCTGTAACCATTATCAATCATGCTCGACGGAGTCACCTAGTGCAG”, the binding signal is 9210 fluorescence intensity (a.u.).

Regarding “GACATGTGCTCCTTGTTGTTTGGCTTGGTCCGCTAGTTCCCGGAGTCACCTAGTGCAG”, the binding signal is 11200 fluorescence intensity (a.u.).

Take “TTTTTTGGATGGGGAGTGATCTTCTCTTACCTCGGTGGGTCGGAGTCACCTAGTGCAG”: the binding signal was 9400 fluorescence intensity (a.u.).

Consider “GCCCCGCCAGCTTCTCCACCCAGGCCTCCGCCCTCCTCCGCGGAGTCACCTAGTGCAG”, for which the binding signal is 8230 fluorescence intensity (a.u.).

For “AACTGCTGAACCTCTAAACATTGACACGTACTGTATATTCCGGAGTCACCTAGTGCAG”, the binding signal was 9860 fluorescence intensity (a.u.).

As to “TCCTAAAATATTTCATTATTTTCTTCGTGTATGATTTATTCGGAGTCACCTAGTGCAG”, the binding signal was 11200 fluorescence intensity (a.u.).

Consider “TCTGCTTCATTACAATTTACTTACCACTATTATCAACAAGCGGAGTCACCTAGTGCAG”, for which the binding signal is 8720 fluorescence intensity (a.u.).

On to “CTGATTATACCATTGTTTTCGTTGCAACTAAATCTTGATACGGAGTCACCTAGTGCAG”, for which the binding signal was 9280 fluorescence intensity (a.u.).

Consider “AATTTGTATTCCTTGTCTTTGGGCTGCGACTTGTCTGGCTCGGAGTCACCTAGTGCAG”, for which the binding signal was 8190 fluorescence intensity (a.u.).

In the case of “CGGACTCGCGGCTCGTTTTCGCGCTCGCGCGCCTGGTCAACGGAGTCACCTAGTGCAG”, the binding signal is 8480 fluorescence intensity (a.u.).

Regarding “TGCCGTCCTCCGTCACTTCCTGCTCCGGTCGCGTTCGTACCGGAGTCACCTAGTGCAG”, the binding signal was 8640 fluorescence intensity (a.u.).

On to “CCGCCACCGCCGCCGCCGCCGCCACCTCTGTCTGCCGCCACGGAGTCACCTAGTGCAG”, for which the binding signal is 8530 fluorescence intensity (a.u.).

Consider “AGTTCTCATCTCCAATTTTCTCGGTACGTGTATTTGAGGGCGGAGTCACCTAGTGCAG”, for which the binding signal was 8240 fluorescence intensity (a.u.).

For the sequence “TTTTTCTCTCGTTCACATTCACCCCACAAGAATCTTATCGCGGAGTCACCTAGTGCAG”, the binding signal was 8620 fluorescence intensity (a.u.).

In the case of “ATCTATGGTCAAAGTCAACACCATCGTAATTCTCACCTGGCGGAGTCACCTAGTGCAG”, the binding signal is 9730 fluorescence intensity (a.u.).

Take “AAGCGGGGATTTTATGTGGGCAGTGGGTTTTCTTCTTAAACGGAGTCACCTAGTGCAG”: the binding signal was 19300 fluorescence intensity (a.u.).

As for “CCGTGTTAATGTAAGTGTTCCGTTGCTGTCCGTGTGAATTCGGAGTCACCTAGTGCAG”, the binding signal is 9260 fluorescence intensity (a.u.).

Consider “GTTGCATCCAGAGCCCGCCCCGCGTCTCTACTCGCTCCGCCGGAGTCACCTAGTGCAG”, for which the binding signal is 8330 fluorescence intensity (a.u.).

Take “TTTCCTCCGTTTCATATTAAGTCATTTGACTTTTTTTGTCCGGAGTCACCTAGTGCAG”: the binding signal was 9460 fluorescence intensity (a.u.).

Consider “ATCCCATTTCCGGAAGATATTACCGTTTCTATTTCCACCACGGAGTCACCTAGTGCAG”, for which the binding signal is 8620 fluorescence intensity (a.u.).

In the case of “GTTTTCCTTGCTGACCTCGATTCGGAATATGGATCCGTGTCGGAGTCACCTAGTGCAG”, the binding signal was 8190 fluorescence intensity (a.u.).
